By IC50 is commonly meant the concentration needed to halve the response being measured. Lower therefore signals higher potency.

The test has as its system HeLa cells. Put plainly: In vitro cytotoxicity MTS assay with HeLa cells. The class given is cell-based, human. The settings on record: HeLa cell line, 48 h incubation, mean ± SD (n = 3). In a few lines: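 HeLa cells were grown in EMEM with 10% FBS, nonessential amino acids and sodium pyruvate at 37 °C in 5% CO2. They were seeded at 40000 cells/well and left 24 h, then exposed 48 h to freshly prepared medium holding test compound over 0–100 or 0–1000 µM. MTS was added for 3 h and absorbance read at 490 nm. IC50 was obtained by curve fitting; runs were in triplicate.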
(In general: Formazan colour is commonly taken as a measure of viable cells.)

Turning to `N.N.[Cl][Pt][Cl]` [cisplatin, cis-diamminedichloridoplatinum(II), reference compound], the IC50 came to 15.5 ± 2.3 µM.
